Some of the results follow. Hit calls seldom repeat between salt and free forms of one compound.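 Kinases were expressed as nanoluciferase fusions in K562 cells and luminescence was read every 4 h between 2 and 18 h as percent of control, DMSO set to 100% and a positive control to 0%. A time point counts as decreased when the signal drops significantly (2 sigma). The hit call is the authors' own, does not follow from the count of time points alone, and its rule is not shown.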
Tests used:
Assay in all cases: number of time points (of 5) at which kinase-Nluc abundance scored as decreased, DMSO-normalised (count); higher = more persistent destabilization
Details in all cases: K562; 2-18 h
FLT3 = FLT3 (UniProt P36888)
FYN = FYN (UniProt P06241)
GSK3A = GSK3A (UniProt P49840)
HER2 = HER2 (UniProt P04626)
INSRR = INSRR (UniProt P14616)
IRAK3 = IRAK3 (UniProt Q9Y616)
JAK1 = JAK1 (UniProt P23458)
LCK = LCK (UniProt P06239)
LIMK1 = LIMK1 (UniProt P53667)
LIMK2 = LIMK2 (UniProt P53671)

Amino acid sequences for entries named in this document (tags omitted). A change or cut given only in a name is not applied to a line headed by its entry.
UniProt P06241, whole entry, looked up: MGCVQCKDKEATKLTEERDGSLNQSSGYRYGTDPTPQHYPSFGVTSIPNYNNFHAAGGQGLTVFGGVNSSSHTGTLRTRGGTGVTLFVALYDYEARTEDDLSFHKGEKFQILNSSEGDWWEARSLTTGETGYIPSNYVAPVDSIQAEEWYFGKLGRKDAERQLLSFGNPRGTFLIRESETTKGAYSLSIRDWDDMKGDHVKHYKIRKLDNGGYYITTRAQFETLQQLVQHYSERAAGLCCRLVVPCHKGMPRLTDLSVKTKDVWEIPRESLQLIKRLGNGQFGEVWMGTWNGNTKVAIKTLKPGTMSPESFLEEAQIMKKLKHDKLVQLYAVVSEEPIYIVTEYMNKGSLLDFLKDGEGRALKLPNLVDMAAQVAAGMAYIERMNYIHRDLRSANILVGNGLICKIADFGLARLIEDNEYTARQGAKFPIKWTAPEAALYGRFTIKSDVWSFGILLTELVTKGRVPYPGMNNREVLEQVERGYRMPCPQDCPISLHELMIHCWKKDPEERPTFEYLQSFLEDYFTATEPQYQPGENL
UniProt P49840: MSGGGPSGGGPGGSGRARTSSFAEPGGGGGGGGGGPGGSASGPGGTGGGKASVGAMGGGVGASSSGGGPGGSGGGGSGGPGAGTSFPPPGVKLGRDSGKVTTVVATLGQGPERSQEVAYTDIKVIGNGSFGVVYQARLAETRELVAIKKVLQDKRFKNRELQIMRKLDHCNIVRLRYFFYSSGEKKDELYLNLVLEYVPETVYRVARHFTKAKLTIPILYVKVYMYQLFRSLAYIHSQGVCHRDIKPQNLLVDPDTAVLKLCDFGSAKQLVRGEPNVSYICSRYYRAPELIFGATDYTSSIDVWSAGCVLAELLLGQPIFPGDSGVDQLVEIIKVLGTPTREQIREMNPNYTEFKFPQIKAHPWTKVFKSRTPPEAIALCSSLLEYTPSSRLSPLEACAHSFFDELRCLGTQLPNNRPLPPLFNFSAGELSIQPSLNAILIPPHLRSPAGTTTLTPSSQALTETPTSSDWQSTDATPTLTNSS
UniProt P14616: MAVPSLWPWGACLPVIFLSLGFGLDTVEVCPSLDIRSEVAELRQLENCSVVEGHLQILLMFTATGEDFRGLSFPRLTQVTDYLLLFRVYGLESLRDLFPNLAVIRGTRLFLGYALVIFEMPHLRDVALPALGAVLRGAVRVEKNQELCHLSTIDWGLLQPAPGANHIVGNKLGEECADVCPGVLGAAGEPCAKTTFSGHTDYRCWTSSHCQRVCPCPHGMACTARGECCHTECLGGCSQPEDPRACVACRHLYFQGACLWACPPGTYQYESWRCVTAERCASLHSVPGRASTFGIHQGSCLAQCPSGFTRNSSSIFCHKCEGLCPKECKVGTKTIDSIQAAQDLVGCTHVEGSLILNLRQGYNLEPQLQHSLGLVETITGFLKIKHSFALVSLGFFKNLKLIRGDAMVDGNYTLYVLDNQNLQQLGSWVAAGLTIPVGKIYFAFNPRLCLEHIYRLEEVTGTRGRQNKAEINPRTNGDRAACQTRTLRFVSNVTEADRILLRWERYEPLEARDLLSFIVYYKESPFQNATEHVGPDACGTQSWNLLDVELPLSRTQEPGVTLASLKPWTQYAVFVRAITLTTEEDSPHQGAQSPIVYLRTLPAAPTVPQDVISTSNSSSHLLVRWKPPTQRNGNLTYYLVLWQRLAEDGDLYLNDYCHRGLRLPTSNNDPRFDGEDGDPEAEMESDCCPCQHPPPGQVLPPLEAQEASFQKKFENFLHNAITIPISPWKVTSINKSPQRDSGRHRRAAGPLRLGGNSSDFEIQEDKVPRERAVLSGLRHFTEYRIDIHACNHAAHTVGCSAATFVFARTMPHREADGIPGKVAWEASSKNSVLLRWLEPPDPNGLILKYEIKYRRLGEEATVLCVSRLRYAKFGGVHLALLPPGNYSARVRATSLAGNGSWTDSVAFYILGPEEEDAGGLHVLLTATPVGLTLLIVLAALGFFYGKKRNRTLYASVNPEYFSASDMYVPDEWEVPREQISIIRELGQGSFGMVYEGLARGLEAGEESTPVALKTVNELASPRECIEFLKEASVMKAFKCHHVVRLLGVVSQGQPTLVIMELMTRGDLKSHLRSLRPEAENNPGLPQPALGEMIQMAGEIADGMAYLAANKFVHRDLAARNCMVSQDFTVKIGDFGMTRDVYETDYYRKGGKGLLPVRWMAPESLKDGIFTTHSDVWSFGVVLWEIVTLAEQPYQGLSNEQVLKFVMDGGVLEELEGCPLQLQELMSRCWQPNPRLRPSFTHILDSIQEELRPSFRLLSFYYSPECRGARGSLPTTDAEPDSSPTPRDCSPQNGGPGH
UniProt Q9Y616: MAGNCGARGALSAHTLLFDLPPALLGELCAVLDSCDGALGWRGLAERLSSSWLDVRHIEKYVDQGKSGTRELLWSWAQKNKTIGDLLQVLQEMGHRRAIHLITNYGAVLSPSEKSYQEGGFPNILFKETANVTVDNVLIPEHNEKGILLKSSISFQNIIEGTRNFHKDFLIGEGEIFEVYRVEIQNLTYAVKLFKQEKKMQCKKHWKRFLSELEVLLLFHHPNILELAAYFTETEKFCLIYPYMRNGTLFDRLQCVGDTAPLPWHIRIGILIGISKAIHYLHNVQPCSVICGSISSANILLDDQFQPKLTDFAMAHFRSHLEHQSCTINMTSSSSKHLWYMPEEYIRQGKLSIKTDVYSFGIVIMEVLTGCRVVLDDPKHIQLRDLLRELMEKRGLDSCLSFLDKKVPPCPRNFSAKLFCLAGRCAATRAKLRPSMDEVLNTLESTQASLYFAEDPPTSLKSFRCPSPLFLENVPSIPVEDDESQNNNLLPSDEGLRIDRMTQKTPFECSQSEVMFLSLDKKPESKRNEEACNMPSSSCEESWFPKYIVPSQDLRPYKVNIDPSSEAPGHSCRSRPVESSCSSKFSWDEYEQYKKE
UniProt P23458: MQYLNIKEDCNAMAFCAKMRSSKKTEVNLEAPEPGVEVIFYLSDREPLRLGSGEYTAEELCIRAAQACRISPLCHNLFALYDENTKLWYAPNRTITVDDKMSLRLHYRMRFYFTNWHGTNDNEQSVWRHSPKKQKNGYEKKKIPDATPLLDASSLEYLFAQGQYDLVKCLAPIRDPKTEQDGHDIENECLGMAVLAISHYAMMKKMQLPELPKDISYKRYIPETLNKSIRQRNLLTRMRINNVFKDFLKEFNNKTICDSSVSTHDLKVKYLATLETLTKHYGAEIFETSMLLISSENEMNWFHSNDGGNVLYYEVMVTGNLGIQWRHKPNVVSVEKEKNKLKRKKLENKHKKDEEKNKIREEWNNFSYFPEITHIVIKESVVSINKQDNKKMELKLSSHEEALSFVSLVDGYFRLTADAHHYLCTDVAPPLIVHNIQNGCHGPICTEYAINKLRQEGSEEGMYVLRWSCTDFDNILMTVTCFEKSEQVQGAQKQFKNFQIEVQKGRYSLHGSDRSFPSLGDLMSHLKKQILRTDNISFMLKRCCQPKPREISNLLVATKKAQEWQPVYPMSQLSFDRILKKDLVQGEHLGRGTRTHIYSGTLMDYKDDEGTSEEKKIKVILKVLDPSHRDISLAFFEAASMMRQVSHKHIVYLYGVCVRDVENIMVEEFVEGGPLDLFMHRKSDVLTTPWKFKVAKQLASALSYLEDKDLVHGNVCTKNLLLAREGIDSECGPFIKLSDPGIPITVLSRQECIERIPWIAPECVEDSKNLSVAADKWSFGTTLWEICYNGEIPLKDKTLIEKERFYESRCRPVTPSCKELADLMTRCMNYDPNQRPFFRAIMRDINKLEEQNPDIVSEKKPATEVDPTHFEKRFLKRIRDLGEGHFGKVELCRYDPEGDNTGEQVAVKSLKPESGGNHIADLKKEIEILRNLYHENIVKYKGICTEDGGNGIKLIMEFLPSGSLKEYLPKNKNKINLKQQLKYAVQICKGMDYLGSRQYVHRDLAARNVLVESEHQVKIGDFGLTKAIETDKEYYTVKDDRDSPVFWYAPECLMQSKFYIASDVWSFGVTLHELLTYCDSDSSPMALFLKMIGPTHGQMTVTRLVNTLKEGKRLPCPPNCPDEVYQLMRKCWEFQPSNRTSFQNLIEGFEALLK
UniProt P06239: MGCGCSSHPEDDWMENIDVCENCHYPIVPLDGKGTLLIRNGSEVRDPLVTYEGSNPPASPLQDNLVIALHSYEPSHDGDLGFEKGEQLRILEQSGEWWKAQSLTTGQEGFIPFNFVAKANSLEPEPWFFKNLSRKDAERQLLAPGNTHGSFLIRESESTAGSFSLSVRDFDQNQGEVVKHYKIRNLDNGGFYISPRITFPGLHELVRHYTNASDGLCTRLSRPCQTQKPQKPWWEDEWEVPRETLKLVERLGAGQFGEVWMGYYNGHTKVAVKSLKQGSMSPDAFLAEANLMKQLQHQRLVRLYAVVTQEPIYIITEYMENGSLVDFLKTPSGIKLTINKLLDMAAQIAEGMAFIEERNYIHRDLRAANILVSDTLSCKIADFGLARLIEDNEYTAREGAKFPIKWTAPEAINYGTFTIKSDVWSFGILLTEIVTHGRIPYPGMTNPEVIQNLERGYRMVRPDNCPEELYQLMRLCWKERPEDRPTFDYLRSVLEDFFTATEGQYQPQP
UniProt P53667: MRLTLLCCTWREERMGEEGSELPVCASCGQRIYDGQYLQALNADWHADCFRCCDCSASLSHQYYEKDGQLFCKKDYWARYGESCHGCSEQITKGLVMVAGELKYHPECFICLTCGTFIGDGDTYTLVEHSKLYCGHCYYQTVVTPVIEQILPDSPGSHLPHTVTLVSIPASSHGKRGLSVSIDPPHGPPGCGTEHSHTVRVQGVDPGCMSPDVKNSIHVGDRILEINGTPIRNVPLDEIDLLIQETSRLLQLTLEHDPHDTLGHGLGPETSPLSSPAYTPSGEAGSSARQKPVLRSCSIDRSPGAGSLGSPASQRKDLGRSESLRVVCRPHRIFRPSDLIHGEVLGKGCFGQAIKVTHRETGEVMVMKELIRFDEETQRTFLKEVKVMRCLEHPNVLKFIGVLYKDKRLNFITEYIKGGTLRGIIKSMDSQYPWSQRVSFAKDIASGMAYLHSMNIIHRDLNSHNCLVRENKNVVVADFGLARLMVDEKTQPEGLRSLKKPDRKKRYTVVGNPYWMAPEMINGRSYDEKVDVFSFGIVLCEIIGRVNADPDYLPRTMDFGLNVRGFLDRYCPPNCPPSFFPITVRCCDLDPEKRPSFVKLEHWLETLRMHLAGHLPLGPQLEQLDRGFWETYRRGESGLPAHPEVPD
UniProt P53671: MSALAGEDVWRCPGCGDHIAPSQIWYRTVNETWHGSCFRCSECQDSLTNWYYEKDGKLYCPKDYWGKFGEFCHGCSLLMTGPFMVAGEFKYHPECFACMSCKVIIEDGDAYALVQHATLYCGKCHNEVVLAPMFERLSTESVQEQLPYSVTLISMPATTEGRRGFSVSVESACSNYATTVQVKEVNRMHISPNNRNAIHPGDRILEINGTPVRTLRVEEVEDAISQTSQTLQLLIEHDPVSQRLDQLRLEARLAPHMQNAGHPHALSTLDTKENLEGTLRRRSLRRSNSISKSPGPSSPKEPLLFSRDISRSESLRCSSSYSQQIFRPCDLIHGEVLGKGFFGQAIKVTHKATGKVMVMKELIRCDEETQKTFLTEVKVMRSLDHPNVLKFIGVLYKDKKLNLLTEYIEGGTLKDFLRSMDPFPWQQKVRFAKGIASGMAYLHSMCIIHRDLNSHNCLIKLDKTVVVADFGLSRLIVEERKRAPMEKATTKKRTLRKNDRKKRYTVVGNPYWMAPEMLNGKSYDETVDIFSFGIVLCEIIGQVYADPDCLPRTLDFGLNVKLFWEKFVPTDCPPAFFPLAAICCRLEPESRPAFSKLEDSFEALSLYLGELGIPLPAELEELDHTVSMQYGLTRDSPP

Structure (SMILES)	number of time points (FLT3)	number of time points (FYN)	number of time points (GSK3A)	number of time points (HER2)	number of time points (INSRR)	number of time points (IRAK3)	number of time points (JAK1)	number of time points (LCK)	number of time points (LIMK1)	number of time points (LIMK2)
CNS(=O)(=O)C[C@H]1CC[C@H](N(C)c2[nH]cnc3nccc2-3)CC1 [Oclacitinib (maleate)] (10 µM)	0	0	0	0	0	0	0	0	0	0
O=C(N/N=C/c1ccc([N+](=O)[O-])o1)c1ccc(O)cc1 [Nifuroxazide] (10 µM)	3	3	0	1	1	1	3	0	2	3
O=C(Nc1cc(Cl)cc(Cl)c1)Nc1cc(Cl)cc(Cl)c1 (10 µM)	0	0	0	0	0	0	0	0	0	0
C[C@H](Nc1ccc2c(c1)OCCn1cc(N3C(=O)OC[C@H]3C(F)F)nc1-2)C(N)=O (10 µM)	0	0	0	0	0	0	0	0	0	0
O=C(Nc1nccs1)C(c1cc(F)ccc1O)N1Cc2ccc(-c3ccc(N4CCNCC4)cc3)cc2C1=O (racemic) (10 µM)	0	0	0	0	0	0	0	0	2	0
O=C(Nc1nccs1)C(c1cc(F)ccc1O)N1Cc2ccccc2C1=O (stereo not given) (10 µM)	0	0	0	0	0	0	0	0	0	0
N#C/C(=C\c1ccc[nH]1)c1ccc(Cl)c(Cl)c1 (2.5 µM)	0	0	0	0	0	0	0	0	0	0
C[C@@H](Nc1cc(F)cc(F)c1)c1cc(C(=O)N(C)C)cc2c(=O)cc(N3CCOCC3)oc12 (10 µM)	0	0	0	0	0	0	0	0	0	0
O=c1cc(-c2ccc(O)cc2)oc2cc(O)c([C@@H]3O[C@H](CO)[C@@H](O)[C@H](O)[C@H]3O)c(O)c12 [Isovitexin] (10 µM)	0	0	0	0	0	0	0	0	0	0
CS(=O)(=O)N1CCN(Cc2cn3cc(-c4cnc(N)nc4)nc(N4CCOCC4)c3n2)CC1 (10 µM)	0	4	0	1	0	0	0	0	3	0
CNS(=O)(=O)Nc1nccc(Cc2c(C)c3ccc(Oc4ncccn4)cc3oc2=O)c1F (10 µM)	3	0	0	0	1	1	0	0	0	0
C[C@H](CC[C@@H](O)C(C)(C)O)[C@H]1CC[C@@]2(C)[C@@H]3CC=C4[C@@H](CC[C@H](O)C4(C)C)[C@]3(C)[C@H](O)C[C@]12C [Mogrol] (10 µM)	0	0	0	0	0	0	0	0	0	0
Nc1nc2c(ncn2COCCO)c(=O)[nH]1 [Acyclovir] (10 µM)	0	0	0	0	0	0	0	0	0	0
CC(C)(C)S(=O)(=O)c1ccc2nccc(Nc3n[nH]c4ccc(F)cc34)c2c1 (10 µM)	0	0	0	0	0	0	0	0	0	0
CC(=O)c1cc(O)ccc1O [2,5-Dihydroxyacetophenone] (10 µM)	0	0	0	0	0	0	0	0	0	0
C=CC(=O)Nc1cccc(Oc2nc(Nc3ccc(N4CCN(C)CC4)cc3)nc3ccsc23)c1 [Olmutinib] (2.5 µM)	0	0	0	0	0	0	0	0	0	0
CC(C)=CCC/C(C)=C/CC/C(C)=C/CSc1ccccc1C(=O)O [Salirasib] (10 µM)	0	0	0	0	0	0	0	0	0	0
COC[C@H]1Cn2cc(-c3nc(Nc4ccnn4C)ncc3C)nc2C(=O)N1Cc1ccc(F)c(F)c1 (10 µM)	0	0	0	0	0	0	0	0	0	0

Structure (SMILES)	number of time points (FLT3)	number of time points (FYN)	number of time points (GSK3A)	number of time points (HER2)	number of time points (INSRR)	number of time points (IRAK3)	number of time points (JAK1)	number of time points (LCK)	number of time points (LIMK1)	number of time points (LIMK2)
CNCCOc1ccccc1C(C)(C)Nc1nccn(-c2cc(C(=O)NC3CC3)ccc2C)c1=O [p38α inhibitor 2] (10 µM)	0	0	0	0	0	0	0	0	0	0
N#Cc1c[nH]c2ccc(-c3ccc(-c4c(O)cccc4O)cc3)cc12 (10 µM)	0	0	0	0	0	0	0	0	0	0
CCc1ccc(NC(=O)Nc2ccccc2)cc1 (10 µM)	0	0	0	0	0	0	0	0	0	0
C[C@H]1CNC(=O)c2cnn3ccc(nc23)N[C@H](C)c2cc(F)ccc2O1 [Repotrectinib] (2.5 µM)	0	1	0	0	2	1	0	0	3	1
O=C1NCCSc2c1sc1ccc(O)cc21 (2.5 µM)	3	2	0	0	0	0	0	0	0	0
Cc1ncc(F)c(Nc2n[nH]c3c2CN(C(=O)N2C[C@@H](C)N(CC4CCOCC4)C[C@@H]2C)C3(C)C)n1 (10 µM)	0	0	0	0	0	0	0	0	0	0
CN(C)CCCn1cc(C2=C(c3c[nH]c4ccccc34)C(=O)NC2=O)c2ccccc21 [Bisindolylmaleimide I] (2.5 µM)	0	0	0	0	0	0	0	0	0	0
CC(C)(C)NS(=O)(=O)c1cncc(-c2cc(F)c3nc(N)nn3c2)c1 (10 µM)	0	0	0	0	0	0	0	0	0	0
COc1ccc2c(c1)C[C@H](C(=O)Nc1ccc(-c3cn[nH]c3)cc1OCCN(C)C)CO2 [Chroman 1] (10 µM)	0	0	0	0	0	0	0	0	0	0
Clc1ccc(Nc2cccc(-c3cn[nH]c3)c2)cc1 (10 µM)	0	0	0	0	0	0	0	0	0	0
O=c1ccc2cc(O)c(O)cc2o1 [Esculetin] (10 µM)	0	0	0	0	0	0	0	0	0	0
CC(C)[C@H](CO)Nc1nc(Nc2ccc(C(=O)O)c(Cl)c2)c2ncn(C(C)C)c2n1 [Purvalanol B] (10 µM)	0	0	0	0	0	0	0	0	0	0
Cc1ccc(-c2csc(Cn3nc(CC4OCCCO4)c4ccccc4c3=O)n2)cc1 (10 µM)	0	0	0	0	0	0	0	0	0	1
Cc1cc(F)c(Nc2ncnc3cc(OCc4ccccc4)ccc23)cc1O (10 µM)	0	0	0	0	0	0	0	0	0	0
CN(c1ccc(C(F)(F)F)cc1)S(=O)(=O)c1ccc(C(=O)Nc2nc(-c3ccccn3)cs2)cc1 (2.5 µM)	0	0	0	0	0	0	0	0	0	0
C=C[C@H]1[C@H](O[C@@H]2O[C@H](CO)[C@@H](O)[C@H](O)[C@H]2O)OC=C(C(=O)OC)[C@H]1CCOC(=O)c1cc(O)c(O)c(O)c1 [Cornuside] (10 µM)	0	0	0	0	0	0	0	0	0	0
CCN1C(C)(C)CC(Oc2ccc(C(=O)Nc3ccc(NC(=O)Nc4cc(C(C)(C)C)on4)cc3)nc2)CC1(C)C (10 µM)	0	0	0	0	0	0	0	0	0	0

Three of these compounds, set out differently.
Structure (SMILES),number of time points (FLT3),number of time points (FYN),number of time points (GSK3A),number of time points (HER2),number of time points (INSRR),number of time points (IRAK3),number of time points (JAK1),number of time points (LCK),number of time points (LIMK1),number of time points (LIMK2)
Cc1ccc(-c2csc(Cn3nc(CC4OCCCO4)c4ccccc4c3=O)n2)cc1 (10 µM),0,0,0,0,0,0,0,0,0,1
Cc1cc(F)c(Nc2ncnc3cc(OCc4ccccc4)ccc23)cc1O (10 µM),0,0,0,0,0,0,0,0,0,0
CN(c1ccc(C(F)(F)F)cc1)S(=O)(=O)c1ccc(C(=O)Nc2nc(-c3ccccn3)cs2)cc1 (2.5 µM),0,0,0,0,0,0,0,0,0,0

— the supplement of paper PMC12823440, “Inhibitors supercharge kinase turnover through native proteolytic circuits” (Nature, 2025)
